Data as given in PMC5651854, “Reconstitution of human shelterin complexes reveals unexpected stoichiometry and dual pathways to enhance telomerase processivity” (Nature Communications, 2017).
Results are given in words; binding and its absence hold for the method and conditions named. Some binding calls cover weakened binding; strength is not graded here. One block for each binder: values may come before it.

Sequences of proteins named here, by UniProt entry; tags and fusion partners are left off.
UniProt Q15554: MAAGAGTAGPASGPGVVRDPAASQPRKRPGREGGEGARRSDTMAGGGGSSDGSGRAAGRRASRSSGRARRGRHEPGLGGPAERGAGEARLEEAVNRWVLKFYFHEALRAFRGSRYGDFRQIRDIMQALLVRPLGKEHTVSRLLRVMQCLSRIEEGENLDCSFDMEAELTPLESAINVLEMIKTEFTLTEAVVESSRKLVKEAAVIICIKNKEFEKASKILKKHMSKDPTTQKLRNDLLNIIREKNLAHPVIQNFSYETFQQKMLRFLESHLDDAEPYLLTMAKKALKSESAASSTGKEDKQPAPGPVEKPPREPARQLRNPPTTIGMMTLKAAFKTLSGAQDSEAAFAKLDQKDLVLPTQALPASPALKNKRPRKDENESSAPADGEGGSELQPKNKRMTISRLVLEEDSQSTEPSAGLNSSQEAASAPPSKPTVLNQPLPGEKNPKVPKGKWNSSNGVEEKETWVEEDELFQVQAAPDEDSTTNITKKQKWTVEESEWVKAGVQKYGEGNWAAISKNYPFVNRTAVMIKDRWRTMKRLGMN

What was measured:
Human TRF2 (human) = Human TRF2 (human) (UniProt Q15554); assay: SEC; proteins co-expressed in Tni insect cells, complex purified (amylose, PreScission cleavage, anion exchange), then Superose 6 Increase 10/300 GL in 50 mM HEPES pH 7.5, 300 mM NaCl, 1 mM TCEP, 4 °C; subunits elute in one peak; both purified
[1] = target: T1, Human RAP1 (human), Q9NYB0; assay: SEC-MALS; purified proteins or co-expressed, purified complexes at 1 mg ml^−1, 100 µl on Superose 6 Increase 10/300 GL, 0.5 ml min^−1, 25 °C, 50 mM HEPES pH 7.5, 300 mM NaCl, 1 mM TCEP; both purified; details: remark: other sources report otherwise
T1 chain: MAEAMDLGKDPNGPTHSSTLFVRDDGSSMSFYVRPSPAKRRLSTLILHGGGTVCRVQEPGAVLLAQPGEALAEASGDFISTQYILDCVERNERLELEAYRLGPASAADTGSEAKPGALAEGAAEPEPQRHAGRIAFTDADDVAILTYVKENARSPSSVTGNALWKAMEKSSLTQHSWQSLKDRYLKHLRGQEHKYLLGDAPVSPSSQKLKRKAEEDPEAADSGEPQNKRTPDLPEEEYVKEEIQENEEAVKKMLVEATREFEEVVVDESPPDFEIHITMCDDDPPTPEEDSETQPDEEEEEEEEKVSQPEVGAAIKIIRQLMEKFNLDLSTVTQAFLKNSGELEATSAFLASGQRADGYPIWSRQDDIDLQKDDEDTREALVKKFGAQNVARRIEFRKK

binding (Human TRF2 (human)): binds
B1: Human RAP1 (protein, UniProt Q9NYB0 1-399)
chain: T1 chain

binding [1]: no binding (tested: 1 mg ml^−1)
B2: Human RAP1, Q9NYB0 1-399 (protein)
chain: T1 chain
